# PubChem BioAssay AID1259272, Sanger Institute, 2017
# Test: 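Kinase knock-downs lethal to colorectal cancer cells, with or without anchor drugs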 (primary screen)
# Cell system: SW1116 human colorectal cancer cells
# Knock-down reagent: siRNA pool against human genes
# Conditions: anchor drugs BYL719 (1 µM), cetuximab (5 µg/ml) or trametinib (10 nM), or DMSO vehicle; exposure length not given
# Measurement: 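Cell survival as a fraction of wells given a non-targeting pool, averaged over replicates; robust z-score without drug; synergy score for each of BYL719, cetuximab and trametinib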
# Direction: viability z-score, no drug: higher = more cells remaining; strongly negative means essential gene; viability, no drug: higher = more viable cells; synergy score with BYL719 and synergy score with cetuximab and synergy score with trametinib: higher = stronger synthetic-lethal synergy with the drug
# Rule for the call: 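Called essential if the drug-free knock-down gives a robust viability z-score below -3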
# Meaning of the calls: active = essential (knock-down alone); inactive = no change
# The deposit covers 794 reagents; shown is a random part of them. Over the whole deposit, 7 (0.88%) got an active call. 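Essential calls reflect knock-down without drug only, not synergy with drugs; drug exposure length not given.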 A number with no mark means an inactive call. No viability above 1 is reported: the scale is capped. Reagent sequences are not shown. Not given: the amount of reagent, the time to read-out.
Gene,PubChem SID,"viability z-score, no drug","viability, no drug (fraction of control)",synergy score with BYL719,synergy score with cetuximab,synergy score with trametinib
NTRK1,SID152154627,-1.03,0.801,-0.0531,0.0321,0.182
ELP1,SID56479224,0.745,0.99,0.00321,-0.0156,-0.102
RNASEL,SID56478962,-0.948,0.809,-0.108,-0.18,-0.024
AURKA,SID135620696,-2.13,0.683,-0.0224,-0.000233,0.0488
MAPK15,SID152151405,0.842,1,-0.00687,0.0463,0.103
FER,SID152156672,0.842,1,-0.0788,0.0706,-0.122
STK3,SID152146922,0.842,1,-0.0127,0.0341,0.157
DLG2,SID152155470,0.842,1,-0.0155,-0.0392,-0.149
GOLGA5,SID134315128,0.327,0.945,-0.101,-0.0376,-0.0556
EGFR,SID135620613,-0.27,0.882,-0.0471,-0.0425,-0.0233
CDK11A,SID152154784,0.307,0.943,-0.1,-0.099,0.0185
PIM1,SID56478736,0.842,1,-0.0122,0.181,0.292
BRSK1,SID135620852,0.322,0.945,-0.0641,-0.046,0.122
WNK4,SID56478961,-0.303,0.878,-0.191,-0.027,-0.0881
PRKAR1B,SID152149404,0.247,0.937,-0.00789,-0.00012,-0.0477
MERTK,SID135620626,-0.028,0.907,0.017,-0.0323,0.178
CAD,SID152152923,0.791,0.995,-0.0123,-0.0807,-0.0228
AK1,SID152147390,0.842,1,-0.0788,-0.00131,0.143
EPHA5,SID152153658,-0.737,0.832,-0.234,-0.0751,-0.0667
EPHB6,SID152155826,0.415,0.955,0.0614,0.116,0.19
FLT1,SID152149290,0.842,1,-0.0119,-0.0261,-0.00653
ABL1,SID135620610,-0.13,0.897,-0.0354,-0.0783,-0.0731
PDGFRL,SID134315029,0.842,1,0.104,0.0171,0.106
ULK2,SID56479062,-1.72,0.727,-0.0672,0.0327,0.136
STK10,SID56478780,-0.38,0.87,0.0377,0.0888,0.148
CAMK2A,SID56478931,-0.425,0.865,-0.0205,-0.16,-0.0314
STKLD1,SID152151495,-0.237,0.885,-0.0397,-0.0242,0.0445
PIP5K1B,SID152154468,0.842,1,-0.0457,0.0278,0.208
PRKD2,SID135620789,0.842,1,-0.05,0.0906,0.0309
CDKL3,SID56478871,0.842,1,-0.0709,0.148,0.143
PRKCG,SID56478828,-0.353,0.873,-0.129,-0.106,0.116
MOS,SID56478732,0.0112,0.912,0.0687,0.0617,0.129
TEC,SID152148252,0.609,0.975,0.0509,0.0707,-0.155
DGUOK,SID152155858,-1.22,0.78,0.0727,-0.00842,0.0381
